# Data: the supplement of paper PMC6331611
# Structures can show the parent of a compound that is named as a salt. ± gives the standard deviation of the averaged measurements. The full ranking holds about 1,600 compounds; the median of “normalized intracellular growth (luminescence, IQM-normalized) in RAW264.7 macrophages” is about 1, and the lowest 2% start at about 0.43. Some of the results follow.
# Tested on: Salmonella enterica serovar Typhimurium SL1344
# Assay: normalized intracellular growth (luminescence, IQM-normalized) in RAW264.7 macrophages (fraction of plate interquartile mean); higher = more bacterial growth (less inhibition)
# Settings: 10 µM
SMILES,normalized intracellular growth (time point: T3 (3 h)),normalized intracellular growth (time point: Tfinal (~6 h))
CN[C@H]1CC[C@@H](c2ccc(Cl)c(Cl)c2)c2ccccc21,0.689 ± 0.092,1 ± 0.047
CCN(CC)CCNC(=O)c1ccc(N)cc1,0.968 ± 0.13,1.05 ± 0.13
NC[C@H](O)c1ccc(O)c(O)c1,0.998 ± 0.033,0.948 ± 0.096
CCCCCCOc1ccccc1C(N)=O,1.06 ± 0.059,0.999 ± 0.025
O=C(O)C1=C(CSc2nnnn2CS(=O)(=O)O)CS[C@@H]2[C@H](NC(=O)[C@H](O)c3ccccc3)C(=O)N12,0.979 ± 0.034,0.824 ± 0.19
Cc1cc2cc3c(C)cc(=O)oc3c(C)c2o1,0.871 ± 0.046,0.956 ± 0.06
CC(=O)Nc1c(I)cc(I)c(C(=O)O)c1I,0.99 ± 0.042,0.715 ± 0.31
CC(=O)Nc1nnc(S(N)(=O)=O)s1,0.933 ± 0.088,1.01 ± 0.076
CC(C)Oc1ccc2c(=O)c(-c3ccccc3)coc2c1,0.959 ± 0.051,1.02 ± 0.078
O=C(CCCl)NCCc1ccccc1,1.055 ± 0.0032,1.02 ± 0.1
CCCCOc1cc(C(=O)OCCN(CC)CC)ccc1N,1.25 ± 0.086,1.22 ± 0.047
C[N+](C)(C)CC(O)CC(=O)[O-] (stereo not drawn),0.978 ± 0.032,0.91 ± 0.16
COC(=O)[C@H](Cc1ccccc1)NC(=O)[C@@H](N)CC(=O)O,0.969 ± 0.022,0.953 ± 0.032
COc1cc(CNC(=O)CCCC/C=C/C(C)C)ccc1O,0.728 ± 0.068,1.02 ± 0.1
O=C(NCCCN1CCOCC1)c1ccc(Cl)cc1,1.25 ± 0.11,1.35 ± 0.15
C[C@]12CC[C@@H]3c4ccc(O)cc4C[C@@H](CCCCCCCCC[S+]([O-])CCCC(F)(F)C(F)(F)F)[C@H]3[C@@H]1CC[C@@H]2O (stereo partly drawn),1.03 ± 0.022,1.03 ± 0.012
CO/N=C(\C(=O)N[C@@H]1C(=O)N2C(C(=O)O)=C(COC(C)=O)CS[C@H]12)c1csc(N)n1,0.898 ± 0.017,0.178 ± 0.0072
CC(C)[C@H](N)C(=O)OCCOCn1cnc2c(=O)nc(N)[nH]c21,0.939 ± 0.015,0.75 ± 0.054
CC1(C)O[C@@H]2C[C@H]3[C@@H]4C[C@H](F)C5=CC(=O)C=C[C@]5(C)[C@@]4(F)[C@@H](O)C[C@]3(C)[C@]2(C(=O)CO)O1,0.912 ± 0.038,0.864 ± 0.022
COc1cc(NS(=O)(=O)c2ccc(N)cc2)ncn1,0.981 ± 0.045,0.984 ± 0.042
CCCCCCCC/C=C\CCCCCCCC(=O)O.NCCO,1.05 ± 0.035,1.09 ± 0.041
Cc1cc(C)nc(NS(=O)(=O)c2ccc(N)cc2)n1,1 ± 0.061,0.986 ± 0.059
CN(C(=O)CN(CCO)CC(=O)N(C)C(C)(C)Cc1ccccc1)C(C)(C)Cc1ccccc1,0.944 ± 0.065,1.13 ± 0.2

# Among those listed so far, these contain fluorine.
SMILES,normalized intracellular growth (time point: T3 (3 h)),normalized intracellular growth (time point: Tfinal (~6 h))
C[C@]12CC[C@@H]3c4ccc(O)cc4C[C@@H](CCCCCCCCC[S+]([O-])CCCC(F)(F)C(F)(F)F)[C@H]3[C@@H]1CC[C@@H]2O (stereo partly drawn),1.03 ± 0.022,1.03 ± 0.012
CC1(C)O[C@@H]2C[C@H]3[C@@H]4C[C@H](F)C5=CC(=O)C=C[C@]5(C)[C@@]4(F)[C@@H](O)C[C@]3(C)[C@]2(C(=O)CO)O1,0.912 ± 0.038,0.864 ± 0.022

# Further records follow:

SMILES,normalized intracellular growth (time point: T3 (3 h)),normalized intracellular growth (time point: Tfinal (~6 h))
COC(=O)N/N=C/c1c[n+]([O-])c2ccccc2[n+]1[O-],0.957 ± 0.032,0.309 ± 0.16
C[C@@H]1C/C=C/C=C/C=C/C=C/[C@H](O[C@@H]2O[C@H](C)[C@@H](O)[C@H](N)[C@@H]2O)C[C@@H]2O[C@](O)(C[C@@H](O)C[C@H]3O[C@@H]3/C=C/C(=O)O1)C[C@H](O)[C@H]2C(=O)O,1.08 ± 0.014,0.574 ± 0.077
COc1ccc(Cl)cc1C(=O)NCCc1ccc(S(=O)(=O)NC(=O)NC2CCCCC2)cc1,0.987 ± 0.047,1.21 ± 0.021
CC#C[C@]1(O)CC[C@H]2[C@@H]3CCC4=CC(=O)CCC4=C3[C@@H](c3ccc(N(C)C)cc3)C[C@@]21C,0.979 ± 0.068,1.17 ± 0.17
CCCCCCNC(=O)n1cc(F)c(=O)[nH]c1=O,1 ± 0.021,0.593 ± 0.4
O=C(CCBr)N1CCN(C(=O)CCBr)CC1,0.9595 ± 0.0073,1.08 ± 0.16
N[C@H]1CONC1=O,0.98 ± 0.079,0.934 ± 0.19
CCCCC1C(=O)N(c2ccccc2)N(c2ccc(O)cc2)C1=O (stereo not drawn),1.02 ± 0.013,1.24 ± 0.086
COc1cc2nc(N3CCN(C(=O)C4COc5ccccc5O4)CC3)nc(N)c2cc1OC (stereo not drawn),0.957 ± 0.047,0.951 ± 0.058
CC(=O)Nc1ccc(OC(=O)c2ccccc2O)cc1,0.991 ± 0.031,1.05 ± 0.11
CC(C)(CO)[C@@H](O)C(=O)NCCC(=O)O [PANTOTHENIC ACID(d) Na salt],1.02 ± 0.15,1.04 ± 0.2
CCN(CC)C(=O)C1(c2ccccc2)CC1CN (stereo not drawn),0.959 ± 0.0089,1.11 ± 0.052
Cc1cc(C(C)(C)C)cc(C)c1CC1=NCCN1,0.9935 ± 0.0047,0.994 ± 0.053
CCN(CCCCOC(=O)c1ccc(OC)c(OC)c1)C(C)Cc1ccc(OC)cc1 (stereo not drawn),1.05 ± 0.041,0.957 ± 0.049
CCN(CC)CCOCCOC(=O)C1(c2ccccc2)CCCC1,1.01 ± 0.028,1.13 ± 0.19
CC#CCn1c(N2CCC[C@@H](N)C2)nc2c1c(=O)n(Cc1nc(C)c3ccccc3n1)c(=O)n2C,1.03 ± 0.054,1.2 ± 0.078
O=C(O)c1ccc[n+]([O-])c1,0.967 ± 0.051,1.05 ± 0.023
NC[C@H]1O[C@H](O[C@H]2[C@H](O)[C@@H](O[C@H]3O[C@H](CO)[C@@H](O)[C@H](N)[C@H]3O)[C@H](N)C[C@@H]2N)[C@H](N)C[C@@H]1O,1.06 ± 0.055,1.04 ± 0.074
CCOC(=O)Nc1nc2ccccc2[nH]1,0.752 ± 0.1,1.17 ± 0.12
CN(C)C(=N)NC(=N)N,1.02 ± 0.025,1.05 ± 0.023
NCCCCCC(=O)O,0.962 ± 0.063,1.06 ± 0.13
CNCCc1ccccn1,0.9551 ± 0.0034,0.965 ± 0.033
CC1=C(C)C(=O)C(C(CCCCCC(=O)O)c2ccccc2)=C(C)C1=O (stereo not drawn),0.994 ± 0.042,1.18 ± 0.085

SMILES,normalized intracellular growth (time point: T3 (3 h)),normalized intracellular growth (time point: Tfinal (~6 h))
CC=CC(=O)N(CC)c1ccccc1C,1.09 ± 0.047,1.14 ± 0.05
CC1CC2C3CCC4=CC(=O)C=CC4(C)C3(F)C(O)CC2(C)C1C(=O)CO (stereo not drawn),0.923 ± 0.035,0.988 ± 0.15
CCCCCCCCCCCCCCCC(=O)OC[C@H](O)[C@H]1OC(=O)C(O)=C1O,0.947 ± 0.02,0.972 ± 0.077
Nc1nc2c(ncn2COC(CO)CO)c(=O)[nH]1,0.973 ± 0.038,1.04 ± 0.17
Clc1cccc(Cl)c1NC1=NCCN1,1 ± 0.034,0.772 ± 0.087
C[C@]12C=CC(=O)N[C@@H]1CC[C@@H]1[C@@H]2CC[C@]2(C)[C@@H](C(=O)Nc3cc(C(F)(F)F)ccc3C(F)(F)F)CC[C@@H]12,1.01 ± 0.021,1.06 ± 0.14
CO[C@H]1/C=C/O[C@@]2(C)Oc3c(C)c(O)c4c(O)c(c5c(nc6cc(C)ccn65)c4c3C2=O)NC(=O)/C(C)=C\C=C\[C@H](C)[C@H](O)[C@@H](C)[C@@H](O)[C@@H](C)[C@H](OC(C)=O)[C@@H]1C,0.993 ± 0.022,1 ± 0.027
Cc1cc(O)c(C(=O)N[C@@H](C(=O)N[C@@H]2C(=O)N3C(C(=O)O)=C(CSc4nnnn4C)CS[C@H]23)c2ccc(O)cc2)cn1,1.04 ± 0.026,1.04 ± 0.23
CCCNC(=O)NS(=O)(=O)c1ccc(Cl)cc1,0.923 ± 0.032,0.943 ± 0.062
CCN(CC)C(C)CN1c2ccccc2Sc2ccccc21 (stereo not drawn),0.774 ± 0.014,0.971 ± 0.038
CC(=O)O[C@]1(C(C)=O)CC[C@H]2[C@@H]3C=C(Cl)C4=CC(=O)CC[C@]4(C)[C@H]3CC[C@@]21C,0.963 ± 0.021,1.1 ± 0.065
CN(C)CCOC(c1ccccc1)c1ccccc1.Cn1c(=O)c2[nH]c(Cl)nc2n(C)c1=O,1.01 ± 0.043,1.03 ± 0.031
O=C1NCC2(CCN(CCc3ccccc3)CC2)O1,1.06 ± 0.08,0.971 ± 0.11
Clc1ccc2c(c1)CCc1cccnc1C2=C1CCNCC1,0.844 ± 0.026,0.834 ± 0.017
CCCOc1ccc2[nH]c(NC(=O)OC)nc2c1,0.865 ± 0.032,1.12 ± 0.35
Cc1cc2nc3c(=O)[nH]c(=O)nc-3n(C[C@H](O)[C@H](O)[C@H](O)CO)c2cc1C,1.03 ± 0.025,1.03 ± 0.078
O=C(c1ccc(F)cc1)C1CCN(CCn2c(=O)[nH]c3ccccc3c2=O)CC1,1.01 ± 0.061,0.869 ± 0.2
CCN(CC)C(=O)c1ccc(O)c(OC)c1,1.12 ± 0.067,1.03 ± 0.27
CC(=O)[C@@]1(O)CC[C@H]2[C@@H]3CCC4=CC(=O)CC[C@]4(C)[C@H]3CC[C@@]21C,0.923 ± 0.017,0.905 ± 0.15
O=C1CC[C@@H](C(=O)N2CSC[C@H]2C(=O)O)N1,1 ± 0.018,1.06 ± 0.07
c1ccc(-c2ccc(C(c3ccccc3)n3ccnc3)cc2)cc1 (stereo not drawn),0.897 ± 0.075,0.799 ± 0.21
Oc1c(Cl)cc(Cl)c2cccnc12,1.04 ± 0.025,0.951 ± 0.089
CN(C)CCC(c1ccc(Br)cc1)c1ccccn1 (stereo not drawn),1 ± 0.056,0.955 ± 0.56

# Compounds from the list above containing an aryl methoxy group (6):
SMILES,normalized intracellular growth (time point: T3 (3 h)),normalized intracellular growth (time point: Tfinal (~6 h))
COc1cc(CNC(=O)CCCC/C=C/C(C)C)ccc1O,0.728 ± 0.068,1.02 ± 0.1
COc1cc(NS(=O)(=O)c2ccc(N)cc2)ncn1,0.981 ± 0.045,0.984 ± 0.042
COc1ccc(Cl)cc1C(=O)NCCc1ccc(S(=O)(=O)NC(=O)NC2CCCCC2)cc1,0.987 ± 0.047,1.21 ± 0.021
COc1cc2nc(N3CCN(C(=O)C4COc5ccccc5O4)CC3)nc(N)c2cc1OC (stereo not drawn),0.957 ± 0.047,0.951 ± 0.058
CCN(CCCCOC(=O)c1ccc(OC)c(OC)c1)C(C)Cc1ccc(OC)cc1 (stereo not drawn),1.05 ± 0.041,0.957 ± 0.049
CCN(CC)C(=O)c1ccc(O)c(OC)c1,1.12 ± 0.067,1.03 ± 0.27

# (continued)

SMILES,normalized intracellular growth (time point: T3 (3 h)),normalized intracellular growth (time point: Tfinal (~6 h))
N#Cc1ccc2c(c1)N(CCCN1CCC(O)CC1)c1ccccc1S2,1.04 ± 0.014,0.869 ± 0.15
Nc1ncnc2c1ncn2[C@@H]1O[C@H](CO)[C@@H](O)[C@@H]1O,1.06 ± 0.061,1.04 ± 0.093
CCCCC(CC)COC(=O)CC(C(=O)OCC(CC)CCCC)S(=O)(=O)O (stereo not drawn),0.943 ± 0.069,0.958 ± 0.027
C[C@H]1C[C@H]2[C@@H]3CCC4=CC(=O)C=C[C@]4(C)[C@@]3(F)[C@@H](O)C[C@]2(C)[C@@]1(O)C(=O)COP(=O)(O)O,0.947 ± 0.011,1.09 ± 0.058
CC[C@H](C)[C@H](N)C(=O)O,1.06 ± 0.055,0.898 ± 0.2
C[C@@](Cc1ccc(O)c(O)c1)(NN)C(=O)O,0.965 ± 0.038,0.861 ± 0.058
CCOc1nc2cccc(C(=O)O)c2n1Cc1ccc(-c2ccccc2-c2nnn[nH]2)cc1,0.992 ± 0.057,1.04 ± 0.034
Cn1c(=O)c2c(ncn2CC2OCCO2)n(C)c1=O,1.01 ± 0.079,0.998 ± 0.15
CC(=O)N(CC(O)CO)c1c(I)c(C(=O)NCCO)c(I)c(C(=O)NCC(O)CO)c1I (stereo not drawn),0.938 ± 0.063,1.17 ± 0.091
CN1CCN(CC(=O)N2c3ccccc3C(=O)Nc3cccnc32)CC1,1.05 ± 0.044,1.04 ± 0.095
COC(=O)Nc1nc2cc(Sc3ccccc3)ccc2[nH]1,0.906 ± 0.046,0.889 ± 0.035
CC(=O)N(CC(O)CO)c1c(I)c(C(=O)NCC(O)CO)c(I)c(C(=O)NCC(O)CO)c1I (stereo not drawn),1.05 ± 0.014,1.08 ± 0.18
CC(C)NCC(O)COc1ccc(CC(N)=O)cc1 (stereo not drawn),0.998 ± 0.14,1.06 ± 0.16
CC(C)Cn1cnc2c(N)nc3ccccc3c21,0.98 ± 0.018,1.02 ± 0.02
CC(=O)OCC(=O)[C@@]1(O)[C@H](OC(C)=O)C[C@H]2[C@@H]3CCC4=CC(=O)C=C[C@]4(C)[C@@]3(F)[C@@H](O)C[C@@]21C,0.823 ± 0.07,1.2 ± 0.034
NC(=O)N1c2ccccc2CC(=O)c2ccccc21,1.09 ± 0.075,1.22 ± 0.13
O=C(O)CCCC[C@@H]1CCSS1,1.06 ± 0.032,1.16 ± 0.12
Cc1cccc(Nc2ccncc2S(=O)(=O)NC(=O)NC(C)C)c1,0.937 ± 0.054,0.843 ± 0.1
O=C1N=C(O)NC1(c1ccccc1)c1ccccc1,0.986 ± 0.025,1.05 ± 0.47
CN(C)c1cc(NC(=O)CNC(C)(C)C)c(O)c2c1C[C@H]1C[C@H]3[C@H](N(C)C)C(O)=C(C(N)=O)C(=O)[C@@]3(O)C(O)=C1C2=O,1.01 ± 0.05,1.02 ± 0.18
